Results as given in article PMC10212096.
No constants are given. Whether binding was seen depends on the method and setting. In cells and extracts the contact can be indirect.

Chains of the proteins cited; added tags and fusions are not shown.
UniProt Q9SXZ2: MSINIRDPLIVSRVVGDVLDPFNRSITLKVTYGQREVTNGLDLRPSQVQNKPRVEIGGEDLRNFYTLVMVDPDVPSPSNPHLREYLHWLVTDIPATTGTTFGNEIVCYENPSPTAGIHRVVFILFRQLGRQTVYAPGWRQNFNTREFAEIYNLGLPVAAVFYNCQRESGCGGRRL
UniProt Q39057: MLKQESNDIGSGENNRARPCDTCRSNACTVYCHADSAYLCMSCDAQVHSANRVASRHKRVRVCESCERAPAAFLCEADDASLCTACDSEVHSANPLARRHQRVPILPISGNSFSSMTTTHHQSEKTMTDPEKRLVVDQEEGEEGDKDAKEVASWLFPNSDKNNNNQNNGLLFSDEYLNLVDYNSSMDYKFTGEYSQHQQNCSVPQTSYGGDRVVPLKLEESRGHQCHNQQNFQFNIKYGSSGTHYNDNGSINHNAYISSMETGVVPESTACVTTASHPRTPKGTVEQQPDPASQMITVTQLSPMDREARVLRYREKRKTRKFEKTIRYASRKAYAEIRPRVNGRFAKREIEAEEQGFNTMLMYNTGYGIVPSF

Biological target: FT with C-terminal GFP (Arabidopsis thaliana) (UniProt Q9SXZ2)
Test: co-IP; co-agroinfiltration of N. benthamiana leaves in pairs; GFP-tagged FT or TFL1 precipitated with anti-GFP nanobody beads (GFP-trapA); 5xMyC-tagged proteins detected with anti-MyC

Sequence: CONSTANS (CO) with N-terminal 5xMyC (from UniProt Q39057 1-373)
- binding: no binding
